Reference: PubChem BioAssay AID2685 (National Center for Advancing Translational Sciences (NCATS), 2010)
The campaign covered roughly 320,000 compounds. About 2,100 (0.66%) were called active. Inconclusive results, whose numbers are uncertain, are shown with a selection of clear calls. Calls follow the shape of the dose curve; as a rule, active = well fitted inhibition curve with a large enough effect in the signal ratio, with a control signal flat (not every such curve was filed as active); inconclusive = small, poorly fitted or top-dose-only effect, or effect the other way, or a change in a side signal; inactive = flat fitted curve, though single readings scatter; the % refers to the signal ratio. Where the call is inconclusive, the potency comes from a doubtful curve fit.

Test: qHTS Assay for Lipid Storage Modulators in Drosophila S3 Cells
Conditions: BODIPY lipid droplet fluorescence, 18-24 h, cells fed with added oleic acid; lipid storage change, negative = inhibition: at 46.1 µM (top of the series) unless noted
Outline: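 Drosophila S3 cells got compounds at several concentrations plus oleic acid (400 uM solution). Laser-scanning cytometry with 488 nm excitation read lipid droplets at 500-530 nm and cells at 575-640 nm. Percent activity was relative to 20 uM Triacsin C.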
% is scaled to controls: 0 for no effect and ±100 for the full control effect; potency is read from the fitted curve at half-maximal effect.

Row | SMILES | lipid storage change, negative = inhibition | Potency
1 | COc1ccc(Nc2oc(COc3ccccc3F)nc2C#N)cc1 | inconclusive: 6.95% [at 9.22 µM] | 
2 | CC(=O)c1cccc(NC(=O)COC(=O)COc2ccccc2C)c1 |  | inconclusive: 29.1 µM [falling, single point]
3 | O=C(O)c1cccc(-c2ccc(/C=N/Nc3ccc([N+](=O)[O-])cc3)o2)c1 | inconclusive: -23.6% | 
4 | Cc1ccc(OCC(=O)n2nc(C)cc2C)c(Br)c1 | inconclusive: 5.73% | 
5 | CCN(CC)C(=O)Cn1cc(C(=O)C(=O)N2CCN(c3ccccc3)CC2)c2ccccc21 |  | inconclusive: 29.1 µM [activator, single point]
6 | Cc1cccc(N(CC(O)CON=C2c3ccccc3-c3ccccc32)S(C)(=O)=O)c1 (stereo not drawn) | inconclusive: 244% | 
7 | O=C(NC1(C(F)(F)F)NC(=O)N(Cc2ccco2)C1=O)c1cccnc1 (stereo not drawn) | inconclusive: 22.5% | 
8 | CCc1ccc(N2CC(C(=O)Nc3nnc(CC)s3)CC2=O)cc1 (stereo not drawn) | inconclusive: 31.5% | 
9 | CC1C2CC(C(CN(C)C)/C2=N/O)C1(C)C (stereo not drawn) |  | inconclusive: 0.517 µM [falling, full curve]
10 | Cc1c(NS(=O)(=O)c2cc(C(=O)NCCc3ccc(F)cc3)cc(Cl)c2Cl)c(=O)n(-c2ccccc2)n1C | inconclusive | 
11 | COc1ccc([C@H]2CC(=O)C=C(c3ccc(C)c4ccccc34)C2)cc1 | inconclusive: -17.5% | 
12 | NNC(=O)c1[nH]c2ccccc2c1-c1ccccc1 | inconclusive: 10.9% | 
13 | CCNC(=S)N/N=C/c1c(C)nn(-c2cccc(Cl)c2)c1Cl | inconclusive: -40.3% | 
14 | CCn1c(CCCc2ccc(OC)c(C)c2)n[nH]c1=S | inconclusive: -29.4% | 
15 | CC1CCN(c2c(NCC3CCC(C(=O)NCc4ccc(F)cc4)CC3)c(=O)c2=O)CC1 (stereo not drawn) | inconclusive: -7.95% | 
16 | CCCN1CCN(CCCNC(=O)CN2C(=O)C(CC)Oc3ccccc32)CC1 (stereo not drawn) |  | inconclusive: 0.411 µM [falling, full curve]
17 | CC1Cc2cc(S(=O)(=O)CCC(=O)NCc3ccco3)ccc2N1C(=O)C1CC1 (stereo not drawn) | inconclusive: 21% | 
18 | CCc1nccn1CCC(=O)N1CCCC(N2CCN(c3ccccc3F)CC2)C1 (stereo not drawn) |  | inconclusive: 29.1 µM [activator, single point]
19 | C/C=C/C=N/NC(=O)CN(c1ccc(Br)cc1)S(=O)(=O)c1ccccc1 | inconclusive: 177% | 
20 | Cc1ccc(N2C(=O)C3ON(c4ccccc4)C(CC(C)C)C3C2=O)cc1 (stereo not drawn) | inconclusive: -5.3% | 
21 | O=C(COc1ccccc1Cl)Nc1ccc(S(=O)(=O)Nc2ccccn2)cc1 |  | inconclusive: 29.1 µM [falling, single point]
22 | O=C(c1ccc(Cl)c(S(=O)(=O)N2CCCCC2)c1)N1CCCC1 |  | inconclusive: 29.1 µM [activator, partial curve, poor fit]
23 | CCS(=O)(=O)Nc1cccc(-c2nc3cccnc3s2)c1 | inconclusive: 27.4% | 
24 | CC(C)(C)C(=O)COC(=O)c1ccc2c(c1)C(=O)N(Cc1ccco1)C2=O |  | active: 0.259 µM
25 | O=C(NC1CCS(=O)(=O)C1)C12CC3CC(CC(C3)C1)C2 (stereo not drawn) | inconclusive: -21.7% | 
26 | COc1ccc(CNC(=O)C(=O)NCC2OCCCN2S(=O)(=O)c2cccs2)cc1 (stereo not drawn) | inconclusive: 19.2% | 

Row | SMILES | lipid storage change, negative = inhibition | Potency
27 | CCOc1c2ccc(C(=O)NCc3ccco3)cc2nn1CC | inconclusive: 8.51% | 
28 | C=CCC(O)(CC=C)CNC(=O)C1CCC(=O)N(CCCc2ccccc2)C1 (stereo not drawn) | inconclusive: 15.7% | 
29 | CC(=O)NS(=O)(=O)c1cccnc1Nc1cccc(Cl)c1C | inconclusive: -2.41% | 
30 | COc1ccc(C)cc1NC(=O)c1cccc(C(=O)Nc2cc(C)ccc2OC)n1 | inconclusive: -26.1% | 
31 | Cc1ccc(Oc2cc(N3CCOCC3)nc(-c3ccccc3)n2)cc1 | inconclusive: 4.35% | 
32 | C=C(C)c1ccccc1NC(=O)CCN1C(=O)c2ccccc2S1(=O)=O |  | inconclusive: 29.1 µM [falling, single point]
33 | O=C(C(=O)N1CC=C(c2ccccc2)CC1)c1c[nH]c2ccccc12 | inconclusive: 11% | 
34 | O=C(Oc1c(Cl)cc(Cl)c2ccccc12)N1CCCC1 | inconclusive: 8% | 
35 | CC(=O)c1ccc(NC(=O)CSCC(=O)Nc2ccc3ccccc3c2)cc1 |  | inconclusive: 2.06 µM [activator, single point]
36 | Cc1ccccc1NS(=O)(=O)c1cc2c(cc1C)NC(=O)CO2 |  | inconclusive: 14.6 µM [falling, partial curve, poor fit]
37 | CSc1cc(-c2ccc(Cl)cc2)c(C(=O)NC(C)C)s1 | inconclusive: 6.82% | 
38 | Cc1ccc(OCC(=O)N/N=C/c2cn(Cc3ccccc3)c3ccccc23)cc1 | inconclusive: -34.3% | 
39 | COCCNC(=S)N(CCO)Cc1cc2cc3c(cc2[nH]c1=O)OCCO3 |  | inconclusive: 29.1 µM [falling, single point]
40 | CC(=O)N1c2ccc(S(=O)(=O)NCC3CCC(C(=O)N4CCC(C)CC4)CC3)cc2CC1C (stereo not drawn) |  | inconclusive: 11.6 µM [activator, partial curve]
41 | CCOC(=O)c1c(N)sn(-c2ccccc2C)c1=S | inconclusive: -15% | 
42 | O=C(Nn1c(-c2ccc(F)cc2)nc2ccccc2c1=O)C1CCCCC1 | inconclusive: -34.4% | 
43 | COc1ccccc1N(CC(=O)NCCc1ccccc1)C(=O)CCC(=O)Nc1nccs1 |  | active: 2.06 µM
44 | COc1cccc(CN2CC(C(=O)N3CCCCCC3)CCC2=O)c1 (stereo not drawn) |  | inconclusive: 0.0146 µM [activator, full curve, poor fit]
45 | COc1ccc(-n2nc(C(=O)NCCCN3CCOCC3)c3ccccc3c2=O)c(OC)c1 | inconclusive: -27.4% | 
46 | Cc1cc(S(=O)(=O)Nc2ccc(C(=O)NCC(c3ccccc3)N(C)C)cc2)ccc1F (stereo not drawn) | inconclusive: 16.4% | 
47 | Cc1c(C(=O)OCC(=O)NC2CCCCC2)oc2ccccc12 |  | inconclusive: 1.3 µM [activator, full curve, poor fit]
48 | O=C(Cc1ccccc1Cl)Nc1ccc(S(=O)(=O)Nc2nccs2)cc1 | inconclusive: 23.7% | 
49 | CC(C)N(CCCNC(=O)Cn1ncc2c([nH]c3ccccc32)c1=O)Cc1ccccc1 |  | inconclusive: 32.6 µM [activator, partial curve, poor fit]
50 | COc1ccc(C)cc1NC(=O)c1ccc2c(c1)C(=O)N(Cc1ccncc1)C2=O |  | inconclusive: 8.2 µM [falling, single point]
51 | COc1ccc(NS(=O)(=O)c2ccc(N3CCCC3=O)cc2)cn1 | inconclusive: 10.9% | 
52 | COc1ccc(Cn2nc(C(=O)O)c3ccccc3c2=O)cc1F | inconclusive: -83.5% | 

Looked up by compound from the entries so far:
Row | SMILES | lipid storage change, negative = inhibition | Potency
48 | O=C(Cc1ccccc1Cl)Nc1ccc(S(=O)(=O)Nc2nccs2)cc1 | inconclusive: 23.7% | 
42 | O=C(Nn1c(-c2ccc(F)cc2)nc2ccccc2c1=O)C1CCCCC1 | inconclusive: -34.4% | 

Going on with the list:

Row | SMILES | lipid storage change, negative = inhibition | Potency
53 | CN(C)CCCOc1ccc(Cl)cc1Br |  | inconclusive: 2.91 µM [activator, full curve, poor fit]
54 | CC(C)CNC(=O)CCCc1ccccc1 |  | inconclusive: 20.6 µM [activator, single point]
55 | COc1ccccc1/C=C(\NC(=O)c1cccc(C)c1)C(=O)Nc1ccccn1 | inconclusive: 86.5% | 
56 | OCCCN1CCN(CCCOc2ccccc2-c2ccccc2)CC1 | inconclusive: 6.89% | 
57 | COc1cc2ccccc2cc1C(=O)Nc1nccs1 |  | inconclusive: 25.9 µM [falling, partial curve, poor fit]
58 | O=S(=O)(Nc1cccc(-n2cnnn2)c1)c1ccc(Cl)cc1 | inconclusive: 172% | 
59 | COc1ccccc1/C=C/C=N/Nc1cccc(C(=O)O)c1 | inconclusive: 48.8% | 
60 | CC1CN(C2=CC(=O)CCC2)CC(C)O1 (stereo not drawn) | inconclusive: 3.51% | 
61 | CCn1ncc(-c2csc(N)n2)c1C | inactive | 
62 | COc1ccccc1C(=O)NCC(=O)N1CCN(S(=O)(=O)c2ccccc2C(F)(F)F)CC1 | inconclusive: 24.1% | 
63 | O=C(CSc1nncs1)NCCNC(=O)CSc1nncs1 | inconclusive: 14.6% | 
64 | CC(NC(=O)c1cccc(S(=O)(=O)N2CCc3ccccc3C2)c1)c1ccco1 (stereo not drawn) |  | inconclusive: 0.0651 µM [falling, full curve, poor fit]
65 | CN1CCN(C(=O)CSc2nnc(COc3ccccc3)o2)CC1 |  | inconclusive: 29.1 µM [activator, partial curve, poor fit]
66 | CC(C)N(Cc1ccccc1)C(=O)c1cnc2n(c1=O)CCS2 | inconclusive: 18.2% | 
67 | CC(=O)Nc1ccc(S(=O)(=O)Nc2ccc(-n3cnnn3)cc2)cc1 |  | inconclusive: 29.1 µM [activator, single point]
68 | O=C(CSc1ncnc2c1oc1ccccc12)Nc1ccccc1F | inconclusive: 18.2% [at 9.22 µM] | 
69 | O=C(CC12CC3CC(CC(C3)C1)C2)NCC(=O)N1CCCC1 | inconclusive: -45.6% | 
70 | FC(F)Oc1ccc(NC(=S)NCC2COc3ccccc3O2)cc1 (stereo not drawn) | inconclusive: -4.39% | 
71 | CN(C)S(=O)(=O)c1cccc(NC(=O)Cc2ccsc2)c1 | inconclusive: 132% | 
72 | Cc1cc(C(F)F)n2nc(C(=O)NCc3ccccc3F)nc2n1 |  | inconclusive: 1.64 µM [activator, partial curve]
73 | Cc1ccc(C2N(C)C(=O)c3ccccc3N2C)cc1 (stereo not drawn) | inconclusive: 32.2% | 
74 | COc1ccc2c(c1)C(C)=CC(C)(C)N2C(=O)C(C)N1C(=O)c2ccccc2C1=O (stereo not drawn) | inactive | 
75 | Cc1ccc(CN2CC(C(=O)Nc3ccc(C)cn3)CC2=O)cc1 (stereo not drawn) | inconclusive: 16.8% | 
76 | O=c1nc2n(c3ccccc13)Cc1ccccc1-2 | inconclusive: 13.7% | 
77 | Cc1ccc(OCC(=O)Nc2ccccc2N2CCOCC2)c(C)c1 | inconclusive: -9.5% | 
78 | Cc1cc(C)n2c(Br)c(CSc3nc4ccccc4o3)nc2n1 |  | inconclusive: 11.6 µM [activator, single point]

Structural class, those above containing a COOH group (3)
Row | SMILES | lipid storage change, negative = inhibition | Potency
3 | O=C(O)c1cccc(-c2ccc(/C=N/Nc3ccc([N+](=O)[O-])cc3)o2)c1 | inconclusive: -23.6% | 
52 | COc1ccc(Cn2nc(C(=O)O)c3ccccc3c2=O)cc1F | inconclusive: -83.5% | 
59 | COc1ccccc1/C=C/C=N/Nc1cccc(C(=O)O)c1 | inconclusive: 48.8% | 
